PubChem BioAssay AID720505 – Drosophila RNAi Screening Center | 2013
Purpose: 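Genes needed for store-operated calcium entry in fly cells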 (primary screen). Cell system: Drosophila S2R+ cells. Knock-down reagent: long dsRNA against Drosophila genes. Treatment: thapsigargin (2 µM) in calcium-free buffer to empty internal stores, then 2 mM calcium added back. Measurement: 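Stores emptied by 2 µM thapsigargin without calcium, then 2 mM calcium re-added; fluo-4 fluorescence followed by FLIPR in 384-well plates, per-well averaged endpoint, raw; two screen passes, some wells retested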. Scale: calcium signal and retest calcium signal: higher = more calcium entry after store depletion. Active means: 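About 1500 genes called as lowering calcium entry, by varying amounts, judged against per-plate control wells with STIM1 as positive and Rho1 as negative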. Meaning of the calls: active = called as lowering calcium entry; inactive = not called.
The screen tested about 20,000 reagents; shown is a random part of those that have a named target and a result. Of all reagents, about 2,100 (10%) are marked active. 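Raw plate signals without normalisation; calls rest on control-based scores that were not deposited; replicate 2 separates called from uncalled poorly.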 A plus sign joins genes that one reagent is predicted to hit. The record does not give: the amount of reagent, the time to read-out.

| Gene | amplicon | calcium signal, replicate 1 | calcium signal, replicate 2 | retest calcium signal, replicate 1 | retest calcium signal, replicate 2 | call |
| --- | --- | --- | --- | --- | --- | --- |
| Tbce (GeneID 35532) | DRSC04897 | 123 | 125 | – | – | inactive |
| sim (GeneID 41612) | DRSC17054 | 85.8 | 152 | – | – | inactive |
| CG9839 (GeneID 41055) | DRSC16574 | 98.2 | 124 | – | – | inactive |
| cic (GeneID 53560) | DRSC14276 | 165 | 149 | – | – | inactive |
| cic (GeneID 53560) | DRSC15708 | 168 | 116 | – | – | inactive |
| cic (GeneID 53560) | DRSC16918 | 113 | 85 | – | – | inactive |
| cic (GeneID 53560) | DRSC21243 | 257 | 122 | – | – | inactive |
| cic (GeneID 53560) | DRSC23217 | 91.9 | 177 | – | – | inactive |
| CG15358 (GeneID 33366) | DRSC00388 | 74 | 128 | – | – | inactive |
| Nsun2 (GeneID 45064) | DRSC18662 | 119 | 120 | 88.5 | 87.8 | inactive |
| Tsf3 (GeneID 36800) | DRSC06849 | 65.5 | 184 | – | – | active |
| Noc1 (GeneID 39240) | DRSC10921 | 111 | 103 | – | – | inactive |
| CG8060 (GeneID 36824) | DRSC07064 | 73 | 149 | – | – | active |
| opm (GeneID 32435) | DRSC20141 | 153 | 84.3 | – | – | inactive |
| opm (GeneID 32435) | DRSC22135 | 91.4 | 139 | – | – | inactive |
| lncRNA:CR40053 (GeneID 14462918) | DRSC20833 | 113 | 11655 | – | – | inactive |
| CG10651 (GeneID 35303) | DRSC02086 | 89.7 | 117 | – | – | inactive |
| CG8031 (GeneID 41601) | DRSC16364 | 108 | 112 | – | – | inactive |
| fred (GeneID 33613) | DRSC00349 | 71.2 | 207 | – | – | active |
| fred (GeneID 33613) | DRSC00599 | 156 | 90.5 | 68.1 | 88 | inactive |
| fred (GeneID 33613) | DRSC00601 | 173 | 74.4 | – | – | inactive |
| fred (GeneID 33613) | DRSC00602 | 153 | 80.6 | – | – | inactive |
| fred (GeneID 33613) | DRSC21906 | 98.6 | 195 | – | – | inactive |
| mei-P26 (GeneID 45775) | DRSC17735 | 113 | 75.5 | – | – | inactive |
| mei-P26 (GeneID 45775) | DRSC23049 | 116 | 158 | – | – | inactive |
| Nos (GeneID 34495) | DRSC03381 | 93.7 | 139 | – | – | inactive |
| CG7201 (GeneID 38929) | DRSC10786 | 98 | 74.2 | – | – | inactive |
| CG16813 (GeneID 34724) | DRSC02520 | 117 | 105 | – | – | inactive |
| CG42560 + CG42559 | DRSC21873 | 85.7 | 165 | – | – | inactive |
| CG10799 (GeneID 36472) | DRSC06002 | 110 | 190 | – | – | inactive |
| CG13926 (GeneID 38192) | DRSC08395 | 97.3 | 150 | – | – | inactive |
| CG9316 (GeneID 35333) | DRSC03195 | 167 | 78.7 | – | – | inactive |
| CG34345 (GeneID 5740402) | DRSC02126 | 108 | 118 | – | – | inactive |
| CG1463 (GeneID 32211) | DRSC19603 | 87.1 | 116 | – | – | inactive |
| fwd (GeneID 45374) | DRSC08580 | 73.2 | 130 | – | – | active |
| r (GeneID 32640) | DRSC19813 | 82.9 | 120 | – | – | inactive |
| r (GeneID 32640) | DRSC19814 | 72.2 | 83.6 | – | – | active |
| PXo (GeneID 38666) | DRSC09734 | 94.1 | 86.4 | – | – | inactive |
| Ttc26 (GeneID 41905) | DRSC15591 | 99.5 | 145 | – | – | inactive |
| CG14756 (GeneID 35798) | DRSC06491 | 131 | 198 | – | – | inactive |
| CG9257 (GeneID 35375) | DRSC03173 | 172 | 73.4 | – | – | inactive |
| mod(mdg4) (GeneID 49228) | DRSC15042 | 116 | 90.3 | – | – | inactive |
| mod(mdg4) (GeneID 49228) | DRSC17000 | 189 | 235 | – | – | inactive |
| Ns4 (GeneID 35338) | DRSC03199 | 74.1 | 79.4 | – | – | inactive |
| Prosbeta2R1 (GeneID 31511) | DRSC18154 | 166 | 122 | – | – | inactive |
| CG14879 (GeneID 41982) | DRSC15003 | 126 | 164 | – | – | inactive |
| ple (GeneID 38746) | DRSC11383 | 78.3 | 61.5 | – | – | inactive |
| CR1075 (GeneID 12798037) | DRSC12144 | 92.2 | 167 | – | – | inactive |
| CG14450 (GeneID 40490) | DRSC11707 | 79.1 | 110 | – | – | inactive |
| CG9928 (GeneID 34704) | DRSC03274 | 123 | 88 | – | – | inactive |
| Nopp140 (GeneID 40433) | DRSC11872 | 103 | 126 | – | – | inactive |
| CG8929 (GeneID 37306) | DRSC07298 | 193 | 112 | – | – | inactive |
| CG8929 (GeneID 37306) | DRSC22847 | 83.2 | 111 | – | – | inactive |
| mRNA-cap (GeneID 32379) | DRSC19789 | 45.7 | 98.3 | – | – | active |
| sala + CG43355 | DRSC01188 | 199 | 102 | 73.6 | 100 | inactive |
| sala + CG43355 | DRSC03605 | 161 | 190 | – | – | inactive |
| CG8586 (GeneID 35854) | DRSC07218 | 170 | 185 | – | – | inactive |
| MBD-R2 (GeneID 41498) | DRSC14180 | 125 | 107 | – | – | inactive |
| Cpr57A + Obp57d | DRSC06708 | 76.1 | 193 | – | – | active |
| Cpr57A + Obp57d | DRSC22719 | 175 | 215 | – | – | inactive |
| His-Psi:CR31754 (GeneID 3772639) | DRSC22051 | 80 | 147 | – | – | inactive |

Already shown: an excerpt of the list.
| Gene | amplicon | calcium signal, replicate 1 | calcium signal, replicate 2 | retest calcium signal, replicate 1 | retest calcium signal, replicate 2 | call |
| --- | --- | --- | --- | --- | --- | --- |
| Tsf3 (GeneID 36800) | DRSC06849 | 65.5 | 184 | – | – | active |
| Noc1 (GeneID 39240) | DRSC10921 | 111 | 103 | – | – | inactive |
| CG8060 (GeneID 36824) | DRSC07064 | 73 | 149 | – | – | active |
| opm (GeneID 32435) | DRSC20141 | 153 | 84.3 | – | – | inactive |
| opm (GeneID 32435) | DRSC22135 | 91.4 | 139 | – | – | inactive |
| lncRNA:CR40053 (GeneID 14462918) | DRSC20833 | 113 | 11655 | – | – | inactive |
| CG10651 (GeneID 35303) | DRSC02086 | 89.7 | 117 | – | – | inactive |
| CG8031 (GeneID 41601) | DRSC16364 | 108 | 112 | – | – | inactive |
| fred (GeneID 33613) | DRSC00349 | 71.2 | 207 | – | – | active |
| fred (GeneID 33613) | DRSC00599 | 156 | 90.5 | 68.1 | 88 | inactive |
| fred (GeneID 33613) | DRSC00601 | 173 | 74.4 | – | – | inactive |
| fred (GeneID 33613) | DRSC00602 | 153 | 80.6 | – | – | inactive |
| fred (GeneID 33613) | DRSC21906 | 98.6 | 195 | – | – | inactive |

The listing continues:
| Gene | amplicon | calcium signal, replicate 1 | calcium signal, replicate 2 | retest calcium signal, replicate 1 | retest calcium signal, replicate 2 | call |
| --- | --- | --- | --- | --- | --- | --- |
| CG7573 (GeneID 39272) | DRSC10884 | 81.1 | 122 | – | – | inactive |
| BomS2 (GeneID 49802) | DRSC21488 | 122 | 87.2 | – | – | inactive |
| CG18563 (GeneID 35050) | DRSC02676 | 122 | 120 | – | – | inactive |
| CG11309 (GeneID 40356) | DRSC11650 | 141 | 68.6 | – | – | inactive |
| CG15332 (GeneID 31714) | DRSC18015 | 168 | 123 | – | – | inactive |
| CG31365 (GeneID 42736) | DRSC15610 | 150 | 249 | – | – | inactive |
| HUWE1 (GeneID 32510) | DRSC20089 | 101 | 146 | – | – | inactive |
| asRNA:CR43430 + hts | DRSC07629 | 161 | 163 | – | – | inactive |
| Tti1 (GeneID 41189) | DRSC15163 | 160 | 111 | – | – | inactive |
| CG13616 (GeneID 42917) | DRSC14619 | 211 | 151 | – | – | inactive |
| et (GeneID 32975) | DRSC19582 | 182 | 81.8 | – | – | inactive |
| CG14451 (GeneID 40488) | DRSC11708 | 81 | 156 | – | – | inactive |
| Lsm10 (GeneID 36141) | DRSC06250 | 146 | 152 | – | – | inactive |
| Cyp6t2Psi (GeneID 3772355) | DRSC01840 | 3543 | 82.7 | – | – | inactive |
| CG6833 (GeneID 39559) | DRSC10721 | 113 | 125 | – | – | inactive |
| CG30383 (GeneID 246583) | DRSC05062 | 70.1 | 119 | – | – | active |
| CG15254 (GeneID 34915) | DRSC01870 | 133 | 136 | 136 | 124 | inactive |
| CG15254 (GeneID 34915) | DRSC21765 | 130 | 137 | – | – | inactive |
| reb (GeneID 36275) | DRSC06308 | 120 | 191 | – | – | inactive |
| Ublcp1 (GeneID 42726) | DRSC14149 | 172 | 321 | – | – | inactive |
| HDAC6 (GeneID 32461) | DRSC20252 | 119 | 119 | – | – | inactive |
| CG15296 (GeneID 31986) | DRSC17983 | 54.5 | 123 | – | – | active |
| CG11149 (GeneID 33800) | DRSC02130 | 149 | 141 | – | – | inactive |
| Roc1a (GeneID 31014) | DRSC18483 | 98.8 | 113 | – | – | inactive |
| FoxL1 (GeneID 38471) | DRSC08717 | 99.2 | 106 | – | – | inactive |
| Mms19 (GeneID 40626) | DRSC12188 | 58.8 | 114 | – | – | active |
| Akr1B (GeneID 39304) | DRSC10581 | 104 | 152 | – | – | inactive |
| Rab30 (GeneID 33988) | DRSC03137 | 198 | 110 | – | – | inactive |
| Naa80 (GeneID 41195) | DRSC16429 | 124 | 121 | – | – | inactive |
| Ssl2 (GeneID 43424) | DRSC14395 | 173 | 85 | – | – | inactive |
| Ssl2 (GeneID 43424) | DRSC22796 | 73.6 | 88.8 | – | – | inactive |
| CG12661 (GeneID 31822) | DRSC17864 | 55.8 | 262 | – | – | active |
| PpV (GeneID 31582) | DRSC18700 | 149 | 104 | – | – | inactive |
| PpV (GeneID 31582) | DRSC23307 | 81.1 | 115 | – | – | inactive |
| CG5246 (GeneID 42072) | DRSC15751 | 172 | 129 | – | – | inactive |
| VhaM9.7-c (GeneID 38503) | DRSC08204 | 66.5 | 118 | – | – | active |
| MP1 (GeneID 40541) | DRSC12124 | 62.5 | 60.2 | 112 | 109 | active |
| CG11263 (GeneID 39472) | DRSC09832 | 89.4 | 97.9 | – | – | inactive |
| CG32544 (GeneID 318082) | DRSC20033 | 94.7 | 109 | – | – | inactive |
| lncRNA:CR43314 (GeneID 12798160) | DRSC01216 | 214 | 126 | – | – | inactive |
| lncRNA:CR43314 (GeneID 12798160) | DRSC21354 | 151 | 102 | – | – | inactive |
| Hs3st-A (GeneID 37161) | DRSC06507 | 142 | 84.9 | – | – | inactive |
| Hs3st-A (GeneID 37161) | DRSC06508 | 155 | 144 | – | – | inactive |
| Hs3st-A (GeneID 37161) | DRSC06509 | 166 | 147 | – | – | inactive |
| abd-A (GeneID 42037) | DRSC16897 | 129 | 70.7 | – | – | active |
| abd-A (GeneID 42037) | DRSC23013 | 124 | 141 | – | – | inactive |
